Experimental data taken from patent US20140073518A1.
No constants are given. Whether binding was seen depends on the method and setting. Some entries that bind do so weakly or less than the wild type. Tags and fused reporters may be left off the sequences shown.

The chains behind the UniProt entries cited, without tags or fusion partners. Where a name states a change or a piece, a line headed by the entry shows the natural chain unless it says otherwise. Residues count along the entry.
UniProt P06756: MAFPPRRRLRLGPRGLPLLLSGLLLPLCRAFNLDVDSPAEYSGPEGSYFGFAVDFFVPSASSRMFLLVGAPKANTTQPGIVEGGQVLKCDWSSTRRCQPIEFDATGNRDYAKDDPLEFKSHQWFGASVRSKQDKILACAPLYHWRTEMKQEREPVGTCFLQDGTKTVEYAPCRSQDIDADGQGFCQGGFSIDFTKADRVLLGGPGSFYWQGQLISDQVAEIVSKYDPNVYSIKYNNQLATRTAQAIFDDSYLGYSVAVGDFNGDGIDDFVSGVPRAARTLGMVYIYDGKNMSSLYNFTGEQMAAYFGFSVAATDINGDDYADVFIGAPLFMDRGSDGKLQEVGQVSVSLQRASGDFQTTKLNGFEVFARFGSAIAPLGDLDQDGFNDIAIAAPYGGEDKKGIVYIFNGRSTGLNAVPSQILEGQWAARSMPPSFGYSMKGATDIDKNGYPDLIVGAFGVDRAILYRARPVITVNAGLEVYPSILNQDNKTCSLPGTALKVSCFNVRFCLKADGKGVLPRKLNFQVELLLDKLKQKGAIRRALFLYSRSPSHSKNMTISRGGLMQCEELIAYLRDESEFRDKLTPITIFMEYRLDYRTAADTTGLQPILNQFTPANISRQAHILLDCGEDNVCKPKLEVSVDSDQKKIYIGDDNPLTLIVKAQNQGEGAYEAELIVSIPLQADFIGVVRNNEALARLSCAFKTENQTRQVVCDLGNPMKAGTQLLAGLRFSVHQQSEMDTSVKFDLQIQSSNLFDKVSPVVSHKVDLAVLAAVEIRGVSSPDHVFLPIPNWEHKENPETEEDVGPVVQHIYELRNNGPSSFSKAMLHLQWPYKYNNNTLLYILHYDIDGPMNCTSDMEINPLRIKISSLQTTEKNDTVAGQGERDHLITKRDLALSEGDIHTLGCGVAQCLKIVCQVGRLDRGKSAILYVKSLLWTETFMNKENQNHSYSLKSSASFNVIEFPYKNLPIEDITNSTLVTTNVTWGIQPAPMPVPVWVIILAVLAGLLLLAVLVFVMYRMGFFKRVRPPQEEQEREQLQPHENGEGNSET
UniProt P08581, residues 25-932: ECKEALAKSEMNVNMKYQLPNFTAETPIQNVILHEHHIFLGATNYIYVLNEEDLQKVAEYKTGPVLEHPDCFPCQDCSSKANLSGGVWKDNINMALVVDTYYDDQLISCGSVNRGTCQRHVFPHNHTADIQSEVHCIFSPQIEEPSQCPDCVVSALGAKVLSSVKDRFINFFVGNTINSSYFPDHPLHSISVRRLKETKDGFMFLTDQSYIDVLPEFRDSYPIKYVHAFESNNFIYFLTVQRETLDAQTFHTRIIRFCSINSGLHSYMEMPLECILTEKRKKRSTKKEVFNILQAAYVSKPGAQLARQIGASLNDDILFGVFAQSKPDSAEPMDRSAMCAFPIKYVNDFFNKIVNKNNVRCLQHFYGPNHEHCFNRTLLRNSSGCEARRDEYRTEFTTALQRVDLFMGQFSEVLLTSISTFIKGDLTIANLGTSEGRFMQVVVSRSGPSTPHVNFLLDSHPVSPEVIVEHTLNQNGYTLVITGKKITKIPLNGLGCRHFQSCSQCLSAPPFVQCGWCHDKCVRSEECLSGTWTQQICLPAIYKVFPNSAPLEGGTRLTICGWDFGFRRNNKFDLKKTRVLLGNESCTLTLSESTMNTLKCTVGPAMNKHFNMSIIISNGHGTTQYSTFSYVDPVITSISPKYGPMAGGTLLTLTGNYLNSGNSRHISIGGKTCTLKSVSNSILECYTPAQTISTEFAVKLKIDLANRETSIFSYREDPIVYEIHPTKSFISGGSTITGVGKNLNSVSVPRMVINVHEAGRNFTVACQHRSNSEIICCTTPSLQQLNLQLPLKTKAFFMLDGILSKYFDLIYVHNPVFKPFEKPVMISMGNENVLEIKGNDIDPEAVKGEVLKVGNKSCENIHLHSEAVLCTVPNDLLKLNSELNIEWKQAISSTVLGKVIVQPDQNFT

Columns and labels:
[1] = biological target: soluble αvβ3 integrin (UniProt P06756); test: yeast surface display of the binder, soluble αvβ3 integrin at 0.5 nM and 5 nM, flow cytometry
[2] = biological target: soluble αvβ3 integrin (UniProt P06756); test: yeast surface display, 0.5 nM and 5 nM soluble αvβ3 integrin
[3] = biological target: soluble Met receptor (UniProt P08581); test: yeast surface display of the binder, soluble Met at 0.5 nM and 5 nM, flow cytometry
[4] = biological target: soluble Met receptor (UniProt P08581); test: yeast surface display, 0.5 nM and 5 nM soluble Met
[5] = biological target: αvβ3 integrin on K562-αvβ3 cells (K562 leukemia cells transfected with αvβ3 integrin) (UniProt P06756); test: binding titration of the soluble fusion protein on K562-αvβ3 cells, flow cytometry; the cells express αvβ3 integrin and also Met receptor
[6] = biological target: soluble αvβ3 integrin (UniProt P06756); test: yeast surface display, soluble αvβ3 integrin
[7] = biological target: soluble αvβ3 integrin (UniProt P06756); test: yeast surface display, 100 or 200 nM αvβ3 integrin in the presence of 100 nM Gas6
[8] = biological target: soluble αvβ3 integrin (UniProt P06756); test: yeast surface display, 20, 50 or 100 nM αvβ3 integrin
[9] = biological target: soluble αvβ3 integrin (UniProt P06756); test: yeast surface display
[10] = biological target: soluble αvβ3 integrin (UniProt P06756); test: yeast surface display, soluble αvβ3 integrin at 100 and 200 nM, alone or with 100 nM soluble Gas6, flow cytometry
[11] = biological target: αvβ3 integrin on K562-αvβ3 cells (K562 leukemia cells transfected with αvβ3 integrin) (UniProt P06756); test: binding to cells transfected to overexpress the αvβ3 integrin
[12] = biological target: αvβ3 integrin on K562-αvβ3 cells (K562 leukemia cells transfected with αvβ3 integrin) (UniProt P06756); test: dual receptor direct binding assay, flow cytometry on K562-αvβ3 cells
[13] = biological target: αvβ3 integrin on K562-αvβ3 cells (K562 leukemia cells transfected with αvβ3 integrin) (UniProt P06756); test: binding to K562 cells transfected with αvβ3 integrin

GCVRLHESCLGQQVPCCDPAATCYCSGRGDNDLVCYCR (designed binder) [AgRP mutant 7A]
binding [1]: binds | binding [2]: binds

B1: AgRP7A-Aras4 fusion protein (yeast surface displayed) (designed binder)
chain: GCVRLHESCLGQQVPCCDPAATCYCSGRGDNDLVCYCRYAEGQGKRRNTIHEFKKSAKTTLIKIDPALRIKTEKANTADQCANRCTRSKGLPFTCKAFVFDKARKRCLWFPFNSMSSGVKKEFGHEFDLYENKAYIRDCIIGRGRNYRGTVSITKSGIKCQPWSAMIPHEHSFLPSSYRGEDLRENYCRNPRGEEGGPWCYTSDPEVRYEVCDIPQCSEVE
binding [1]: binds | binding [2]: binds | binding [3]: binds | binding [4]: binds

B2: AgRP7A-Aras4 fusion protein (soluble, FLAG and His tagged) (designed binder)
chain: DYKDDDDKPRGCVRLHESCLGQQVPCCDPAATCYCSGRGDNDLVCYCRYAEGQGKRRNTIHEFKKSAKTTLIKIDPALRIKTEKANTADQCANRCTRSKGLPFTCKAFVFDKARKRCLWFPFNSMSSGVKKEFGHEFDLYENKAYIRDCIIGRGRNYRGTVSITKSGIKCQPWSAMIPHEHSFLPSSYRGEDLRENYCRNPRGEEGGPWCYTSDPEVRYEVCDIPQCSEVETRHHHHHH
binding [5]: binds

B3: EETI 2.5D-Axl fusion protein (yeast-displayed) (designed binder)
chain: GCPQGRGDWAPTSCSQDSDCLAGCVCGPNGFCGSRGTQAEESPFVGNPGNITGARGLTGTLRCQLQVQGEPPEVHWLRDGQILELADSTQTQVPLGEDEQDDWIVVSQLRITSLQLSDTGQYQCLVFLGHQTFVSQPGYVGLEGLP
binding [6]: binds | binding [7]: binds | binding [8]: binds | binding [9]: binds | binding [10]: binds

B4: EETI 2.5D-Axl fusion protein (soluble, produced in P. pastoris) (designed binder)
chain: GCPQGRGDWAPTSCSQDSDCLAGCVCGPNGFCGSRGTQAEESPFVGNPGNITGARGLTGTLRCQLQVQGEPPEVHWLRDGQILELADSTQTQVPLGEDEQDDWIVVSQLRITSLQLSDTGQYQCLVFLGHQTFVSQPGYVGLEGLP
binding [11]: binds

B5: AgRp7A-M2.2 fusion protein (designed binder)
chain: DYKDDDDKPRGCVRLHESCLGQQVPCCDPAATCYCSGRGDNDLVCYCRYAEGQRKRRNTIHEFKKSAKTTLIKIDPALKIKTEKVNTADQCANRCTRNKGLPFTCKAFVFDKARKRCLWFPFNSMSSGVKKEFGHEFDLYENKDYIRDCIIGNGRSYRGTVSITKSGIKCQPWSSMIPHEHSFLPSSYRGEDLRENYCRNPRGEEGGPWCFTSDPEVRYEVCDIPQCSEVETRHHHHHH
binding [12]: binds

B6: EETI2.5F-M2.2 fusion protein (designed binder)
chain: DYKDDDDKPRGCPRPRGDNPPLTCSQDSDCLAGCVCGPNGFCGYAEGQRKRRNTIHEFKKSAKTTLIKIDPALKIKTEKVNTADQCANRCTRNKGLPFTCKAFVFDKARKRCLWFPFNSMSSGVKKEFGHEFDLYENKDYIRDCIIGNGRSYRGTVSITKSGIKCQPWSSMIPHEHSFLPSSYRGEDLRENYCRNPRGEEGGPWCFTSDPEVRYEVCDIPQCSEVETRHHHHHH
binding [12]: binds

B7: AgRp7A-M2.2(D127A) fusion protein (designed binder)
chain: DYKDDDDKPRGCVRLHESCLGQQVPCCDPAATCYCSGRGDNDLVCYCRYAEGQRKRRNTIHEFKKSAKTTLIKIDPALKIKTEKVNTADQCANRCTRNKGLPFTCKAFVFDKARKRCLWFPFNSMSSGVKKEFGHEFDLYENKDYIRACIIGNGRSYRGTVSITKSGIKCQPWSSMIPHEHSFLPSSYRGEDLRENYCRNPRGEEGGPWCFTSDPEVRYEVCDIPQCSEVETRHHHHHH
binding [12]: binds

B8: EETI2.5F-M2.2(D127A) fusion protein (designed binder)
chain: DYKDDDDKPRGCPRPRGDNPPLTCSQDSDCLAGCVCGPNGFCGYAEGQRKRRNTIHEFKKSAKTTLIKIDPALKIKTEKVNTADQCANRCTRNKGLPFTCKAFVFDKARKRCLWFPFNSMSSGVKKEFGHEFDLYENKDYIRACIIGNGRSYRGTVSITKSGIKCQPWSSMIPHEHSFLPSSYRGEDLRENYCRNPRGEEGGPWCFTSDPEVRYEVCDIPQCSEVETRHHHHHH
binding [12]: binds

GCPQGRGDWAPTSCKQDSDCRAGCVCGPNGFCG (designed binder) [EETI-II mutant 2.5D (yeast-displayed)]
binding [8]: binds

B9: knottin 2.5F-Fc (EETI 2.5F fused to the Fc domain of mouse Ig2a) (Fc fusion)
chain: GCPRPRGDNPPLTCKQDSDCLAGCVCGPNGFCGEPRGPTIKPCPPCKCPAPNLLGGPSVFIFPPKIKDVLMISLSPIVTCVVVDVSEDDPDVQISWFVNNVEVHTAQTQTHREDYNSTLRVVSALPIQHQDWMSGKEFKCKVNNKDLPAPIERTISKPKGSVRAPQVYVLPPPEEEMTKKQVTLTCMVTDFMPEDIYVEWTNNGKTELNYKNTEPVLDSDGSYFMYSKLRVEKKNWVERNSYSCSVVHEGLHNHHTTKSFSRTPGK
binding [13]: binds

B10: knottin 2.5D-Fc (EETI 2.5D fused to the Fc domain of mouse Ig2a) (Fc fusion)
chain: GCPQGRGDWAPTSCKQDSDCRAGCVCGPNGFCGEPRGPTIKPCPPCKCPAPNLLGGPSVFIFPPKIKDVLMISLSPIVTCVVVDVSEDDPDVQISWFVNNVEVHTAQTQTHREDYNSTLRVVSALPIQHQDWMSGKEFKCKVNNKDLPAPIERTISKPKGSVRAPQVYVLPPPEEEMTKKQVTLTCMVTDFMPEDIYVEWTNNGKTELNYKNTEPVLDSDGSYFMYSKLRVEKKNWVERNSYSCSVVHEGLHNHHTTKSFSRTPGK
binding [13]: binds
